The record followed here is article PMC5945681.

One assay has as its target HA-p53 (UniProt P04637). Description: co-IP; HEK293T cells co-transfected with Flag-USP49 and HA-p53 (or its truncations); lysates immunoprecipitated with anti-Flag or anti-HA antibodies and protein G-agarose, 4 °C, 4 h; lysis buffer 50 mM Tris-HCl pH 7.4-7.5, 150 mM NaCl, 1 mM EDTA, 1% NP-40; immunoblot.
The next assay deals with GST-p53 (UniProt P04637). Description: pull-down; GST-p53 (and GST) bound to Sepharose beads incubated with whole-cell lysate of HCT116 cells stably expressing Flag-USP49, 1 ml RIPA buffer, 4 °C, 4 h; immunoblot; only the target purified. In general terms: A western blot detects proteins with antibodies after separation by electrophoresis.
In assay [1] the target is endogenous p53 (human (endogenous in HCT116 and U2OS)) (UniProt P04637). In words: co-IP; endogenous proteins; HCT116 (text: also U2OS) lysates immunoprecipitated with an anti-p53 antibody, normal IgG as negative control; cells treated with 50 μM Eto for 4 h; immunoblot with USP49- and p53-specific antibodies.

No constants are given. Whether binding was seen depends on the method and setting. Binding seen in cells or lysates may run through a third protein. Some results given as binding are weak or reduced against the parent protein; the word gives no strength. For part of these data: Tags and fused reporters may be left off the sequences shown.

B1: Flag-USP49 (enzyme, UniProt Q70CQ1 1-688)
chain: MDRCKHVGRLRLAQDHSILNPQKWCCLECATTESVWACLKCSHVACGRYIEDHALKHFEETGHPLAMEVRDLYVFCYLCKDYVLNDNPEGDLKLLRSSLLAVRGQKQDTPVRRGRTLRSMASGEDVVLPQRAPQGQPQMLTALWYRRQRLLARTLRLWFEKSSRGQAKLEQRRQEEALERKKEEARRRRREVKRRLLEELASTPPRKSARLLLHTPRDAGPAASRPAALPTSRRVPAATLKLRRQPAMAPGVTGLRNLGNTCYMNSILQVLSHLQKFRECFLNLDPSKTEHLFPKATNGKTQLSGKPTNSSATELSLRNDRAEACEREGFCWNGRASISRSLELIQNKEPSSKHISLCRELHTLFRVMWSGKWALVSPFAMLHSVWSLIPAFRGYDQQDAQEFLCELLHKVQQELESEGTTRRILIPFSQRKLTKQVLKVVNTIFHGQLLSQVTCISCNYKSNTIEPFWDLSLEFPERYHCIEKGFVPLNQTECLLTEMLAKFTETEALEGRIYACDQCNSKRRKSNPKPLVLSEARKQLMIYRLPQVLRLHLKRFRWSGRNHREKIGVHVVFDQVLTMEPYCCRDMLSSLDKETFAYDLSAVVMHHGKGFGSGHYTAYCYNTEGGFWVHCNDSKLNVCSVEEVCKTQAYILFYTQRTVQGNARISETHLQAQVQSSNNDEGRPQTFS
Consider B1, for which the binding entry in the assay with HA-p53 was “binds”.

B2: Flag-USP49 (stably expressed in HCT116 cells) (enzyme, UniProt Q70CQ1 1-688)
chain: MDRCKHVGRLRLAQDHSILNPQKWCCLECATTESVWACLKCSHVACGRYIEDHALKHFEETGHPLAMEVRDLYVFCYLCKDYVLNDNPEGDLKLLRSSLLAVRGQKQDTPVRRGRTLRSMASGEDVVLPQRAPQGQPQMLTALWYRRQRLLARTLRLWFEKSSRGQAKLEQRRQEEALERKKEEARRRRREVKRRLLEELASTPPRKSARLLLHTPRDAGPAASRPAALPTSRRVPAATLKLRRQPAMAPGVTGLRNLGNTCYMNSILQVLSHLQKFRECFLNLDPSKTEHLFPKATNGKTQLSGKPTNSSATELSLRNDRAEACEREGFCWNGRASISRSLELIQNKEPSSKHISLCRELHTLFRVMWSGKWALVSPFAMLHSVWSLIPAFRGYDQQDAQEFLCELLHKVQQELESEGTTRRILIPFSQRKLTKQVLKVVNTIFHGQLLSQVTCISCNYKSNTIEPFWDLSLEFPERYHCIEKGFVPLNQTECLLTEMLAKFTETEALEGRIYACDQCNSKRRKSNPKPLVLSEARKQLMIYRLPQVLRLHLKRFRWSGRNHREKIGVHVVFDQVLTMEPYCCRDMLSSLDKETFAYDLSAVVMHHGKGFGSGHYTAYCYNTEGGFWVHCNDSKLNVCSVEEVCKTQAYILFYTQRTVQGNARISETHLQAQVQSSNNDEGRPQTFS
Turning to B2, in the assay with GST-p53, the binding result is given as “binds”.

B3: endogenous USP49 (enzyme, UniProt Q70CQ1 1-688)
chain: MDRCKHVGRLRLAQDHSILNPQKWCCLECATTESVWACLKCSHVACGRYIEDHALKHFEETGHPLAMEVRDLYVFCYLCKDYVLNDNPEGDLKLLRSSLLAVRGQKQDTPVRRGRTLRSMASGEDVVLPQRAPQGQPQMLTALWYRRQRLLARTLRLWFEKSSRGQAKLEQRRQEEALERKKEEARRRRREVKRRLLEELASTPPRKSARLLLHTPRDAGPAASRPAALPTSRRVPAATLKLRRQPAMAPGVTGLRNLGNTCYMNSILQVLSHLQKFRECFLNLDPSKTEHLFPKATNGKTQLSGKPTNSSATELSLRNDRAEACEREGFCWNGRASISRSLELIQNKEPSSKHISLCRELHTLFRVMWSGKWALVSPFAMLHSVWSLIPAFRGYDQQDAQEFLCELLHKVQQELESEGTTRRILIPFSQRKLTKQVLKVVNTIFHGQLLSQVTCISCNYKSNTIEPFWDLSLEFPERYHCIEKGFVPLNQTECLLTEMLAKFTETEALEGRIYACDQCNSKRRKSNPKPLVLSEARKQLMIYRLPQVLRLHLKRFRWSGRNHREKIGVHVVFDQVLTMEPYCCRDMLSSLDKETFAYDLSAVVMHHGKGFGSGHYTAYCYNTEGGFWVHCNDSKLNVCSVEEVCKTQAYILFYTQRTVQGNARISETHLQAQVQSSNNDEGRPQTFS
Take B3: the binding result in assay [1] is “binds”.
